Reference: the supplement of paper PMC3682954
Where a name gives a salt, the structure may show the parent alone. ± gives the standard deviation of the averaged measurements. This is one part of the list. Repeats are few or missing, and single values can be far off.

Test system: RAW 264.7
Test: cell viability (MTT) relative to vehicle control; higher = more viable cells
Settings: stimulus: HMGB1 5 ug/ml, 18 h
[1] = compound concentration: 1 ug/ml

Structure (SMILES) | cell viability (compound concentration: 3 uM) [%] | cell viability [1] [%]
O=C1NCN(c2ccccc2)C12CCN(CCCC(c1ccc(F)cc1)c1ccc(F)cc1)CC2 [Fluspirilen] | 108 | 
O=C1NCN(c2ccccc2)C12CCN(CCCC(c1ccc(F)cc1)c1ccc(F)cc1)CC2 [Fluspirilene] | 111 ± 9.2 | 
COc1cccc(OC)c1OCCNCC1COc2ccccc2O1 (stereo not drawn) [WB-4101 hydrochloride] | 112 | 
CC(C)NCC(O)c1ccc(NS(C)(=O)=O)cc1 (racemic) [(±)-Sotalol hydrochloride] | 116 | 
O=C(O)CCC(=O)N1CCC[C@H]1C(=O)O [N-Succinyl-L-proline] | 116 | 
N=C(N)NC(=O)c1nc(Cl)c(N)nc1N [Amiloride hydrochloride] | 112 | 
N=C(N)NC(=O)c1nc(Cl)c(N)nc1N | 108 | 
N=C(N)NC(=O)c1nc(Cl)c(N)nc1N [Amiloride hydrochloride dihydrate] | 108 | 
N=C(N)NC(=O)c1nc(Cl)c(N)nc1N [Amiloride] | 94.2 | 
O=[N+]([O-])c1cccc2c(Br)[nH]nc12 [3-Bromo-7-nitroindazole] | 109 | 
O=C(Nc1ccc(C(=O)O)c(O)c1)c1ccccc1 | 92.5 | 
CCCCOC(=O)c1ccc(N)cc1 | 103 | 
CCCCOC(=O)c1ccc(N)cc1 [Butamben] | 129 | 
O=C1c2cc(CO)cc(O)c2C(=O)c2c(OC3OC(CO)C(O)C(O)C3O)cccc21 (stereo not drawn) [Aloe-Emodin-8-O-glycoside] |  | 100
CC(C)COC(=O)OCN1C(=O)CN(CCN2CC(=O)N(COC(=O)OCC(C)C)C(=O)C2)CC1=O [Sobuzoxane] | 118 | 
CCCCC1=NC2(CCCC2)C(=O)N1Cc1ccc(-c2ccccc2-c2nnn[nH]2)cc1 | 101 ± 3.8 | 
O=C(Nc1nc2ccccc2n1CCN1CCOCC1)c1cccc([N+](=O)[O-])c1 [IRAK-1/4 Inhibitor I] | 127 | 
CC(=O)SCC[N+](C)(C)C [Acetylthiocholine chloride] | 97.8 | 
CC[C@H]1OC(=O)[C@H](C)[C@@H](O[C@H]2C[C@@](C)(OC)[C@@H](O)[C@H](C)O2)[C@H](C)[C@@H](O[C@@H]2O[C@H](C)C[C@H](N(C)C)[C@H]2O)[C@](C)(OC)C[C@@H](C)C(=O)[C@H](C)[C@@H](O)[C@]1(C)O | 106 ± 5.6 | 
CC[C@H]1OC(=O)[C@H](C)[C@@H](O[C@H]2C[C@@](C)(OC)[C@@H](O)[C@H](C)O2)[C@H](C)[C@@H](O[C@@H]2O[C@H](C)C[C@H](N(C)C)[C@H]2O)[C@](C)(OC)C[C@@H](C)C(=O)[C@H](C)[C@@H](O)[C@]1(C)O [Clarithromycin] | 103 ± 4.9 | 
CCOc1ccccc1OCC1CNCCO1 (stereo not drawn) [Viloxazine hydrochloride] | 103 | 
Nc1ccc(-c2ccc3ccccc3n2)cc1 [BF-170 hydrochloride] | 89.7 | 
O=[N+]([O-])c1ccc2c(c1)S(=O)(=O)C=C2 [Stattic] | 125 | 
CN[C@H](CC(C)C)C(=O)N[C@H]1C(=O)N[C@@H](CC(N)=O)C(=O)N[C@H]2C(=O)N[C@H]3C(=O)N[C@H](C(=O)N[C@H](C(=O)O)c4cc(O)cc(O)c4-c4cc3ccc4O)[C@H](O)c3ccc(c(Cl)c3)Oc3cc2cc(c3O[C@@H]2O[C@H](CO)[C@@H](O)[C@H](O)[C@H]2O[C@H]2C[C@](C)(N)[C@H](O)[C@H](C)O2)Oc2ccc(cc2Cl)[C@H]1O [Vancomycin hydrochloride] | 93.7 | 
CN[C@H](CC(C)C)C(=O)N[C@H]1C(=O)N[C@@H](CC(N)=O)C(=O)N[C@H]2C(=O)N[C@H]3C(=O)N[C@H](C(=O)N[C@H](C(=O)O)c4cc(O)cc(O)c4-c4cc3ccc4O)[C@H](O)c3ccc(c(Cl)c3)Oc3cc2cc(c3O[C@@H]2O[C@H](CO)[C@@H](O)[C@H](O)[C@H]2O[C@H]2C[C@](C)(N)[C@H](O)[C@H](C)O2)Oc2ccc(cc2Cl)[C@H]1O [Vancomycin hydrochloride from Streptomyces orientalis] | 114 | 

Structure (SMILES) | cell viability (compound concentration: 3 uM) [%] | cell viability [1] [%]
CN[C@H](CC(C)C)C(=O)N[C@H]1C(=O)N[C@@H](CC(N)=O)C(=O)N[C@H]2C(=O)N[C@H]3C(=O)N[C@H](C(=O)N[C@H](C(=O)O)c4cc(O)cc(O)c4-c4cc3ccc4O)[C@H](O)c3ccc(c(Cl)c3)Oc3cc2cc(c3O[C@@H]2O[C@H](CO)[C@@H](O)[C@H](O)[C@H]2O[C@H]2C[C@](C)(N)[C@H](O)[C@H](C)O2)Oc2ccc(cc2Cl)[C@H]1O | 108 | 
O=c1c(O)c(-c2ccc(O)c(O)c2)oc2cc(O)ccc12 [Fisetin] |  | 89
CNS(=O)(=O)Cc1ccc2[nH]cc(CCN(C)C)c2c1 [Sumatriptan succinate] | 110 | 
CNS(=O)(=O)Cc1ccc2[nH]cc(CCN(C)C)c2c1 [Sumatriptan Succinate] | 97 | 
CNS(=O)(=O)Cc1ccc2[nH]cc(CCN(C)C)c2c1 | 95 | 
NS(=O)(=O)c1cc2c(cc1Cl)N=CNS2(=O)=O [Chlorothiazide] | 102 ± 4.1 | 
NS(=O)(=O)c1cc2c(cc1Cl)N=CNS2(=O)=O | 112 | 
C=NC(C(=O)NC1C(=O)N2C1SC(C)(C)C2C(=O)O)c1ccccc1 (stereo not drawn) | 111 | 
CC(C)COCC(CN(Cc1ccccc1)c1ccccc1)N1CCCC1 (stereo not drawn) | 100 | 
CC(C)COCC(CN(Cc1ccccc1)c1ccccc1)N1CCCC1 (stereo not drawn) [Bepridil hydrochloride] | 94.2 ± 3 | 
CC(C)COCC(CN(Cc1ccccc1)c1ccccc1)N1CCCC1 (stereo not drawn) [Bepridil] | 110 | 
Cn1c(=O)c2[nH]c(C3CCCC3)nc2n(C)c1=O [8-Cyclopentyl-1,3-dimethylxanthine] | 101 | 
CCOC(=O)[C@H](CCc1ccccc1)N[C@@H](C)C(=O)N1[C@H](C(=O)O)C[C@@H]2CCC[C@@H]21 | 102 ± 4.5 | 
CCOC(=O)[C@H](CCc1ccccc1)N[C@@H](C)C(=O)N1[C@H](C(=O)O)C[C@@H]2CCC[C@@H]21 [Ramipril] | 95.2 ± 3.7 | 
CCOc1ccc2c(c1)C(C)=CC(C)(C)N2 [Ethoxyquin] | 135 | 
NC(=O)c1ncn([C@@H]2O[C@H](CO)[C@@H](O)[C@H]2O)n1 | 104 | 
NC(=O)c1ncn([C@@H]2O[C@H](CO)[C@@H](O)[C@H]2O)n1 [Ribavirin] | 100 ± 20 | 
NS(=O)(=O)c1cc(C(=O)O)c(NCc2ccco2)cc1Cl [Furosemide] | 98 ± 17 | 
NS(=O)(=O)c1cc(C(=O)O)c(NCc2ccco2)cc1Cl | 107 | 
NC(=S)c1ccc[n+]([C@@H]2O[C@@H](COP(=O)([O-])OP(=O)(O)OC[C@H]3O[C@@H](n4cnc5c(N)ncnc54)C(OP(=O)(O)O)[C@H]3O)C(O)C2O)c1 (stereo partly drawn) [Thio-NADP sodium] | 113 | 
COc1ccc2oc(-c3ccccc3)c(OC)c(=O)c2c1 |  | 85.6
O=C(O)c1cc(=O)c2ccccc2o1 | 112 | 
COc1cc(C(=O)NS(=O)(=O)c2ccccc2C)ccc1Cc1cn(C)c2ccc(NC(=O)OC3CCCC3)cc12 | 96.2 | 
COc1cc(C(=O)NS(=O)(=O)c2ccccc2C)ccc1Cc1cn(C)c2ccc(NC(=O)OC3CCCC3)cc12 [Zafirlukast] | 99.6 ± 5 | 
O=c1ccn(C2OC(COc3ccc([N+](=O)[O-])cc3)C(O)C2O)c(=O)[nH]1 (stereo not drawn) |  | 91.9

Laid out differently: entries from further up
Structure (SMILES)	cell viability (compound concentration: 3 uM) [%]	cell viability [1] [%]
CCOC(=O)[C@H](CCc1ccccc1)N[C@@H](C)C(=O)N1[C@H](C(=O)O)C[C@@H]2CCC[C@@H]21	102 ± 4.5	
CCOC(=O)[C@H](CCc1ccccc1)N[C@@H](C)C(=O)N1[C@H](C(=O)O)C[C@@H]2CCC[C@@H]21 [Ramipril]	95.2 ± 3.7	
CCOc1ccc2c(c1)C(C)=CC(C)(C)N2 [Ethoxyquin]	135	
NC(=O)c1ncn([C@@H]2O[C@H](CO)[C@@H](O)[C@H]2O)n1	104	
NC(=O)c1ncn([C@@H]2O[C@H](CO)[C@@H](O)[C@H]2O)n1 [Ribavirin]	100 ± 20	
NS(=O)(=O)c1cc(C(=O)O)c(NCc2ccco2)cc1Cl [Furosemide]	98 ± 17	

Later entries.

Structure (SMILES) | cell viability (compound concentration: 3 uM) [%] | cell viability [1] [%]
Cc1cc(C2CCCCC2)n(O)c(=O)c1 [Ciclopirox ethanolamine] | 96.5 | 
Cc1cc(C2CCCCC2)n(O)c(=O)c1 | 108 | 
CN1CCN(C2=Nc3cc(Cl)ccc3Nc3ccccc32)CC1 [Clozapine] | 104 ± 2.4 | 
CN1CCN(C2=Nc3cc(Cl)ccc3Nc3ccccc32)CC1 | 101 | 
CCCCCCCCCCCCCCCC(=O)NCCO [Palmitoylethanolamide] | 102 | 
O=C(O)c1ccccc1Nc1ccccc1 [N-Phenylanthranilic acid] | 110 | 
O=c1cc(-c2cccc(O)c2)oc2cccc(O)c12 |  | 99.3
COc1ccc(-c2coc3cc(OC4OC(CO)C(O)C(O)C4O)cc(O)c3c2=O)cc1 (stereo not drawn) [Sissotrine] |  | 88.9
Brc1ccc([C@H]2CN3CCSC3=N2)cc1 [S(-)-p-Bromotetramisole oxalate] | 106 | 
C=CC[C@H](N)C(=O)O [L-allylglycine] | 106 | 
C[C@@H]1NC(=O)NC1=O [Methylhydantoin-5-(L)] | 91.3 | 
CC1CCc2c(N3CCC(O)CC3)c(F)cc3c(=O)c(C(=O)O)cn1c23 (stereo not drawn) [Nadifloxacin] | 106 ± 14 | 
CCCc1c(OCCCCc2nnn[nH]2)ccc(C(C)=O)c1O | 101 | 
O=c1c(O)c(-c2ccc(O)cc2)oc2ccc(O)cc12 |  | 85.8
Cc1ccc(-c2ncc(Cl)cc2-c2ccc(S(C)(=O)=O)cc2)cn1 [Etoricoxib] | 106 ± 10 | 
N=C1C=CC(=C(c2ccc(N)cc2)c2ccc(N)cc2)C=C1 | 89.1 | 
CC1(C2CCCC2)Cc2cc(OCC(=O)O)c(Cl)c(Cl)c2C1=O (stereo not drawn) | 95.1 | 
O=C(O)c1cc(O)c2c(c1)[C@@H]([C@H]1c3cc(C(=O)O)cc(O)c3C(=O)c3c(O[C@@H]4O[C@H](CO)[C@@H](O)[C@H](O)[C@H]4O)cccc31)c1cccc(O[C@@H]3O[C@H](CO)[C@@H](O)[C@H](O)[C@H]3O)c1C2=O [Sennoside B] |  | 97.5
CO[C@H]1O[C@@H]2O[C@@]3(C)CC[C@H]4[C@H](C)CC[C@@H]([C@H]1C)[C@@]24OO3 | 87.7 | 
N#C/C(=C\c1ccc(O)c(O)c1)C(=O)c1ccc(O)c(O)c1 [Tyrphostin AG 538] | 119 | 
NC12CC3CC(CC(C3)C1)C2 [Adamantamine fumarate] | 123 | 
NC12CC3CC(CC(C3)C1)C2 [Amantadine hydrochloride] | 105 | 
NC12CC3CC(CC(C3)C1)C2 | 102 | 
